Reference: PubChem BioAssay AID1671195 (Yale University, 2021)
In all, the deposit lists about 22,000 reagents; shown is an unselected part. About 1,510 of all reagents (6.9%) were called active. 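Active includes knockdowns raising or lowering LDL uptake; positive z-scores mean more uptake, negative mean less.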 Unmarked entries are inactive. Reagent sequences are not shown.

Test: 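Genes whose knockdown alters LDL uptake in liver cancer cells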 (primary screen)
Cells: human Huh7 hepatoma cells
Reagents: siRNA pool against human genes, 18 nM
Timing: about 2 to 2.5 days of knockdown, then 8 h LDL uptake
Treatment: DiI-labelled LDL at 30 µg/ml for 8 h, in lipoprotein-deficient serum medium
Measured: 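Fluorescent LDL signal imaged in cells, scaled to the plate median, robust z-score for each replicate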
Reading the numbers: robust z-score: higher = more LDL uptake after knockdown
Call rule: 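a gene counts as active if at least two replicate z-scores exceed ±2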

The first 8 entries as a preview:
| Gene | PubChem SID | robust z-score, replicate 1 | robust z-score, replicate 2 | robust z-score, replicate 3 |
| --- | --- | --- | --- | --- |
| RPL21P44 | SID442904389 | -1.44 | -1.53 | -1.87 |
| PRSS41 | SID442885086 | 1.47 | 1.62 | 1.97 |
| KDM5C | SID442902145 | -1.15 | -0.903 | -1 |
| ERCC8 | SID442888738 | 0.893 | 0.982 | 0.136 |
| SPPL3 | SID442887813 | 1.01 | 0.809 | 0.688 |
| PLA2G7 | SID442888176 | 1.26 | 0.0957 | 0.959 |
| PRKX | SID442900449 | -1.2 | -1.19 | 0.119 |
| CCDC187 | SID442887706 | 0.615 | 0.96 | 0.999 |

Results, from the first entry:
| Gene | PubChem SID | robust z-score, replicate 1 | robust z-score, replicate 2 | robust z-score, replicate 3 |
| --- | --- | --- | --- | --- |
| RPL21P44 | SID442904389 | -1.44 | -1.53 | -1.87 |
| PRSS41 | SID442885086 | 1.47 | 1.62 | 1.97 |
| KDM5C | SID442902145 | -1.15 | -0.903 | -1 |
| ERCC8 | SID442888738 | 0.893 | 0.982 | 0.136 |
| SPPL3 | SID442887813 | 1.01 | 0.809 | 0.688 |
| PLA2G7 | SID442888176 | 1.26 | 0.0957 | 0.959 |
| PRKX | SID442900449 | -1.2 | -1.19 | 0.119 |
| CCDC187 | SID442887706 | 0.615 | 0.96 | 0.999 |
| LMOD1 | SID442903584 | -1.3 | -2.34 | -0.353 |
| ARID3C | SID442896234 | 0.517 | -0.646 | -0.624 |
| POLM | SID442893009 | 0.349 | -0.239 | 0.181 |
| METTL13 | SID442904328 | -2.22 | -1.22 | -1.32 |
| PPP2R2A | SID442903415 | -1.27 | -1.48 | -1.13 |
| MTCH2 | SID442903016 | -0.956 | -1.2 | -1.43 |
| ZDHHC6 | SID442900362 | -0.656 | -1.31 | -0.284 |
| SLC4A11 | SID442899132 | -0.506 | -0.579 | -0.659 |
| LAMP2 | SID442890695 | 0.455 | 0.423 | 0.266 |
| RTL5 | SID442897483 | -0.249 | -0.408 | -0.514 |
| ADORA1 | SID442901601 | -0.552 | -1.13 | -1.09 |
| TAFA3 | SID442900562 | -0.734 | -0.852 | -0.743 |
| PMEPA1 | SID442885259 | 1.41 | 0.983 | 2.4 |
| LPCAT3 | SID442885507 | 1.3 | 1.27 | 1.89 |
| LOC387922 (retired record) | SID442901068 | -0.872 | -0.74 | -0.928 |
| MCCC1 | SID442886465 | 1.11 | 1.3 | 1.05 |
| NCF2 | SID442892460 | -0.15 | 0.376 | 0.268 |
| RAPH1 | SID442891673 | 0.155 | 0.339 | 0.277 |
| NIPAL1 | SID442889837 | 0.529 | 0.493 | 0.486 |
| PCDHA6 | SID442895576 | 0.0605 | -0.226 | -0.382 |
| PRORSD1P | SID442903092 | -1.06 | -1.57 | -1.01 |
| C3orf80 | SID442903690 | -1.39 | -1.28 | -1.41 |
| SUB1 | SID442902443 | -0.867 | -1.07 | -1.29 |
| TRIM35 | SID442891042 | -0.529 | 0.842 | 0.702 |
| ST20-AS1 | SID442893509 | -0.149 | -0.102 | 0.377 |
| PREX2 | SID442891362 | 0.354 | 0.54 | -0.0062 |
| ARHGEF16 | SID442904076 | -1.47 | -0.741 | -2.25 |
| PDX1 | SID442890850 | 0.316 | 0.437 | 0.335 |
| LINC02873 | SID442890759 | 0.352 | 0.237 | 0.526 |
| IL9R | SID442902095 | -0.831 | -1.14 | -1.06 |
| PHAX | SID442904492 | -1.45 | -2.45 | -1.11 |
| LOC440336 (retired record) | SID442883724 | 2.95 (active) | 1.86 | 2.41 |
| RNF20 | SID442896616 | -0.539 | 0.394 | -0.735 |
| TRIM51G | SID442904311 | -1.65 | -1.45 | -1.64 |
| PDLIM4 | SID442889000 | 0.0716 | 1.53 | 0.275 |
| CKS2 | SID442889094 | 0.538 | 0.384 | 0.918 |
| LINC02239 | SID442901884 | -1.12 | -0.969 | -0.842 |
| AP3M1 | SID442895024 | 0.556 | -0.65 | -0.283 |
| FTHL17 | SID442893823 | 0.173 | -0.711 | 0.559 |
| EPM2A | SID442894488 | -0.14 | -0.269 | 0.203 |
| MINAR1 | SID442893034 | 0.265 | 0.00347 | 0.0144 |
| GALNT7 | SID442884251 | -2.02 (active) | -0.177 | -2.03 |
| ACVR2B | SID442903884 | -1.53 | -1.58 | -1.15 |
| PLPP4 | SID442900224 | -0.59 | -0.622 | -0.982 |
| ASCL1 | SID442902369 | -0.577 | -1.15 | -1.46 |
| PTGER4 | SID442894254 | -0.363 | 0.546 | -0.31 |
| SLC7A14 | SID442901894 | -1.05 | -0.837 | -1.05 |
| MIDEAS | SID442894550 | -0.412 | 0.38 | -0.191 |
| KRT1 | SID442888698 | 1.26 | 0.498 | 0.276 |
| ABCF1 | SID442895244 | -0.256 | 0.221 | -0.413 |
| OR8U9 | SID442902791 | -0.855 | -1.31 | -1.28 |
| EIF3D | SID442885561 | 0.608 | 3.12 | 0.666 |
| LOC140103 (retired record) | SID442904516 | -1.56 | -2.08 | -1.41 |
| PIR | SID442901241 | -0.361 | -1.51 | -0.742 |
| SLC35E1 | SID442902365 | -0.726 | -1.37 | -1.08 |
| FOXA3 | SID442888185 | 0.817 | 1.02 | 0.47 |
| GPN1 | SID442890889 | 0.314 | 0.172 | 0.588 |
| GINS4 | SID442897427 | -0.117 | -0.319 | -0.716 |
| RFX3 | SID442887668 | 0.894 | 0.88 | 0.824 |
| DNAAF1 | SID442886116 | 2.15 | 1.33 | 0.309 |
